Experimental data from US20190177419A1 (BERGEN TEKNOLOGIOVERFORING, published 2019).
Results are given in words; binding and its absence hold for the method and conditions named. Some entries that bind do so weakly or less than the wild type.

By UniProt entry, the sequences of proteins in these tests, tags left out. Where a name states a change or a piece, a line headed by the entry shows the natural chain unless it says otherwise. Residues count along the entry.
UniProt P30530: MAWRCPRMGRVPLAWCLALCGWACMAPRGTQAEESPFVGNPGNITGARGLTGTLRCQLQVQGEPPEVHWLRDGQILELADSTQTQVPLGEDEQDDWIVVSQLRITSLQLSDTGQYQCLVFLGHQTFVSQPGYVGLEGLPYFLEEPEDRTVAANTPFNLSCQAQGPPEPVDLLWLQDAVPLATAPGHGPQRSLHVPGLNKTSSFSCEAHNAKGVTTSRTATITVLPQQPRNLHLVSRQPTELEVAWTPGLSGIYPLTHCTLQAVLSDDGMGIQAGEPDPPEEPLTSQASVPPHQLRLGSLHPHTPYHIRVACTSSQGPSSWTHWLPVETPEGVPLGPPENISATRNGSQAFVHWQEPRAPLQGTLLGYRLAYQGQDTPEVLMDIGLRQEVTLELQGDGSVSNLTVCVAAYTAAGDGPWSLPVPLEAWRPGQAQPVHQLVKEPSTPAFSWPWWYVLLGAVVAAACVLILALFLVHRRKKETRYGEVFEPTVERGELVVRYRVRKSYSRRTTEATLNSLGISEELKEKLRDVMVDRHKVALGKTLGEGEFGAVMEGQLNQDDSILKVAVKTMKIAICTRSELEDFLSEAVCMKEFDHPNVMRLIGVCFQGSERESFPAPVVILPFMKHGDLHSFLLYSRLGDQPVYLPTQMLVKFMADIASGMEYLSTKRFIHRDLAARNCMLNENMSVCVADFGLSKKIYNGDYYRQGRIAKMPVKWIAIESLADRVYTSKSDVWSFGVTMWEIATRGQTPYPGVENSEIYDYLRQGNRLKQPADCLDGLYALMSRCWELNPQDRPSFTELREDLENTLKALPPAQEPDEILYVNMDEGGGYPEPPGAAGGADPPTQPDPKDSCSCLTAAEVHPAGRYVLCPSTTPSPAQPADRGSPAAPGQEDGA
human Axl receptor on cells (Axl-positive MDA-MB-231 cells; HeLa cells; Axl+ cells): residues 26-894 of P30530
recombinant human Axl-Fc chimera (R&D Systems, Cat. no. 154-AL): residues 26-451 of P30530

Experiments:
[1] = biological target: human Axl receptor on cells (Axl-positive MDA-MB-231 cells; HeLa cells; Axl+ cells) (human) (UniProt P30530); experiment: flow cytometry on MDA-MB-231 cells, detection with APC-conjugated donkey anti-human IgG (H+L) F(ab')2
[2] = biological target: recombinant human Axl-Fc chimera (R&D Systems, Cat. no. 154-AL) (human) (UniProt P30530); experiment: SPR kinetics (Biacore 3000), rhAxl-Fc immobilised on a CM5 chip, antibody series injected for 3 min [panel c10G5]
[3] = biological target: recombinant human Axl-Fc chimera (R&D Systems, Cat. no. 154-AL) (human) (UniProt P30530); experiment: SPR, Biacore 3000, rhAxl-Fc immobilised on CM5 (1,308.0 RU), antibody 10 µg/mL
[4] = biological target: human Axl receptor on cells (Axl-positive MDA-MB-231 cells; HeLa cells; Axl+ cells) (human) (UniProt P30530); experiment: flow cytometry on MDA-MB-231 cells
[5] = biological target: recombinant human Axl-Fc chimera (R&D Systems, Cat. no. 154-AL) (human) (UniProt P30530); experiment: SPR (Biacore 3000), rhAxl-Fc immobilised on a CM5 chip, antibody injected at 10 µg/mL for 3 min, 5 min dissociation [panel 10G5 vs. c10G5]

Measured: binding

B1: chimeric (mouse variable/human constant) IgG1 antibody c10G5 (antibody, V domains shown)
VH: QVQLQQSGAELVRPGASVKLSCKASGYSFTDFYINWVRQRPGQGLEWIARIFPGGDNTYYNEKFKGKATLTAEESSSTAYIQLSSLTSEDSAVYFCARRGLYYAMDYWGQGISVTVSS
VL: DVLMTQTPLSLPVSLGDQASISCRSSQSLVHSNGIPYLHWYLQKPGQSPKLLIYRVSNRFSGVPDRFSGSGSGTDFTLKISRVEAEDLGVYFCSQGTHVPPTFGGGTKLEIK
notes: 10G5 VH and VL joined in frame to human IgG1 and C-kappa constant domains, made in CHO cells; also called chimeric 10G5; not shown: constant domains of the human IgG1 heavy chain; constant domain of the human light (C-kappa) chain
binds: all assays above
